These are yes or no findings as the source states them, for the method shown. In cells and extracts the contact can be indirect. Some binding calls cover weakened binding; strength is not graded here.
Target: CDK4 (human (endogenous in CAL-62, HTC-C3, 8505C and C-643 cells)) (UniProt P11802)
Test: co-IP; immunoprecipitation with an anti-CDK4 antibody from cells treated for 6 d with vehicle, dabrafenib, trametinib or palbociclib alone or combined; immunodetection of co-precipitated proteins

Amino acid sequences for entries named in this document (tags omitted).
UniProt P11802: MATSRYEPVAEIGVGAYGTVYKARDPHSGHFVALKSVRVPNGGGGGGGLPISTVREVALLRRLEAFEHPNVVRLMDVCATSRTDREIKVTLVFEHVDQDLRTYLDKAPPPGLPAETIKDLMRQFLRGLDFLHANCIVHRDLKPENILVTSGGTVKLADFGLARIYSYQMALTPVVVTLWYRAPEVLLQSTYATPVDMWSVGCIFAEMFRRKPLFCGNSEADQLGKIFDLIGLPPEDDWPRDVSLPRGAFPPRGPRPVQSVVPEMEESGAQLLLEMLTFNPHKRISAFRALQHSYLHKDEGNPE
UniProt P30281: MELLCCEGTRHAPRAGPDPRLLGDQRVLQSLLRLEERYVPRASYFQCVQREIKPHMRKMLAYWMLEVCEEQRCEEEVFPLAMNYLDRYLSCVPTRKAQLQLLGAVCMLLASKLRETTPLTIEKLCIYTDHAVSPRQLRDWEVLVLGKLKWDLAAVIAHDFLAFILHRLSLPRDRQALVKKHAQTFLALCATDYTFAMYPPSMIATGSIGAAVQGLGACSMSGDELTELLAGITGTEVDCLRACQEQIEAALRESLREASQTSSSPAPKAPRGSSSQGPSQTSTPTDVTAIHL

Cyclin D3 (from UniProt P30281 1-292)
binding: binds

Source: paper PMC10641312
